Assay results taken from patent US20240376454A1.
These are yes or no findings as the source states them, for the method shown. Some results given as binding are weak or reduced against the parent protein; the word gives no strength.

T1: Pfu Cas3 HEL (Pyrococcus furiosus)
T1 sequence: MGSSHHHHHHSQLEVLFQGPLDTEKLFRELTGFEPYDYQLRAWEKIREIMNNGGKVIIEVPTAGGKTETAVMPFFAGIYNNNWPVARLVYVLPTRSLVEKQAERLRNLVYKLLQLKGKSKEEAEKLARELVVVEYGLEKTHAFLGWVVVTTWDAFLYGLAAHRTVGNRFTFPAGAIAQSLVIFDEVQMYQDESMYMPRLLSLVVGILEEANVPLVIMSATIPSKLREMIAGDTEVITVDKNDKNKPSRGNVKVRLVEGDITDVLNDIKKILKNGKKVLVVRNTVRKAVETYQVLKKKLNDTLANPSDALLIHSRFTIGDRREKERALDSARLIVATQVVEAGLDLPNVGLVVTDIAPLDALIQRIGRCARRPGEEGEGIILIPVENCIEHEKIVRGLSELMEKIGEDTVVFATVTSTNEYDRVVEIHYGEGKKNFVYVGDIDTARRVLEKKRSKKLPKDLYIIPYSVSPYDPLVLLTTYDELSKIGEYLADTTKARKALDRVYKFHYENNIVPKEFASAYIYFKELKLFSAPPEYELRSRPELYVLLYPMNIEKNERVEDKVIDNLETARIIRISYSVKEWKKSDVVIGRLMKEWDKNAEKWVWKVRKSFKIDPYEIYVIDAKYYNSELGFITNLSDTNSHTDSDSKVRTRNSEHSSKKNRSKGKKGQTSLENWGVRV


Experiments:
[1] = target: Pfu Cas8a (Pyrococcus furiosus); experiment: cryo-EM of the Pfu Cas3-Cas8a sub-complex
[2] = target: Pfu Cascade (Pyrococcus furiosus); experiment: agarose EMSA with labeled partners; SEC
[3] = target: Pfu Cascade (Pyrococcus furiosus); experiment: size-exclusion chromatography without target DNA
[4] = target: Pfu Cascade (Pyrococcus furiosus); experiment: cryo-EM of the Pfu Cascade-Cas3 complex
[5] = target: Pfu Cascade (Pyrococcus furiosus); experiment: agarose EMSA with Cy3-Cas3, Cy5-Cascade and FAM-dsDNA
[6] = target: Pfu Cas8a (Pyrococcus furiosus); experiment: SEC and SDS-PAGE of reconstituted complexes
[7] = target: T1, Pfu Cas3 HEL (Pyrococcus furiosus); experiment: SEC and SDS-PAGE of mixed subunits

binding [1] | binding [2] | binding [3] | binding [4] | binding [5] | binding [6] | binding [7] | Binder
binds | binds | binds | binds | binds | binds | – | Pfu Cas3 (HD+HEL) (enzyme) chain 1: MGSSHHHHHHSQLEVLFQGPLGSSCKAFQGQTLREHIEAMLAAWEIVKNKYIPSIIRVMKTVGVKFTEEDADKFMKTLIILHDVGKCSEVYQKHLSNNEPLRGFRHELVSAYYAYNILKDMFKDETIAFIGALVVMMHHEPILMGQIRSLDKEELTPEVVLDKLRTFNGVMEGTESFIKSMIKEKLGVIPKVPSPTQEDVLREVIRLSVLARHRPDSGKLRMVVGALLIPLVLCDYKGAKEREGESPKFAEVLRVEMMK chain 2: MGSSHHHHHHSQLEVLFQGPLDTEKLFRELTGFEPYDYQLRAWEKIREIMNNGGKVIIEVPTAGGKTETAVMPFFAGIYNNNWPVARLVYVLPTRSLVEKQAERLRNLVYKLLQLKGKSKEEAEKLARELVVVEYGLEKTHAFLGWVVVTTWDAFLYGLAAHRTVGNRFTFPAGAIAQSLVIFDEVQMYQDESMYMPRLLSLVVGILEEANVPLVIMSATIPSKLREMIAGDTEVITVDKNDKNKPSRGNVKVRLVEGDITDVLNDIKKILKNGKKVLVVRNTVRKAVETYQVLKKKLNDTLANPSDALLIHSRFTIGDRREKERALDSARLIVATQVVEAGLDLPNVGLVVTDIAPLDALIQRIGRCARRPGEEGEGIILIPVENCIEHEKIVRGLSELMEKIGEDTVVFATVTSTNEYDRVVEIHYGEGKKNFVYVGDIDTARRVLEKKRSKKLPKDLYIIPYSVSPYDPLVLLTTYDELSKIGEYLADTTKARKALDRVYKFHYENNIVPKEFASAYIYFKELKLFSAPPEYELRSRPELYVLLYPMNIEKNERVEDKVIDNLETARIIRISYSVKEWKKSDVVIGRLMKEWDKNAEKWVWKVRKSFKIDPYEIYVIDAKYYNSELGFITNLSDTNSHTDSDSKVRTRNSEHSSKKNRSKGKKGQTSLENWGVRV
– | – | – | – | – | – | binds | Pfu Cas3 HD (enzyme) MGSSHHHHHHSQLEVLFQGPLGSSCKAFQGQTLREHIEAMLAAWEIVKNKYIPSIIRVMKTVGVKFTEEDADKFMKTLIILHDVGKCSEVYQKHLSNNEPLRGFRHELVSAYYAYNILKDMFKDETIAFIGALVVMMHHEPILMGQIRSLDKEELTPEVVLDKLRTFNGVMEGTESFIKSMIKEKLGVIPKVPSPTQEDVLREVIRLSVLARHRPDSGKLRMVVGALLIPLVLCDYKGAKEREGESPKFAEVLRVEMMK
